Results are given in words; binding and its absence hold for the method and conditions named. In cells and extracts the contact can be indirect.
Target: T1, vezatin (mouse (endogenous in mouse hippocampus)) (UniProt Q3ZK22)
T1 sequence: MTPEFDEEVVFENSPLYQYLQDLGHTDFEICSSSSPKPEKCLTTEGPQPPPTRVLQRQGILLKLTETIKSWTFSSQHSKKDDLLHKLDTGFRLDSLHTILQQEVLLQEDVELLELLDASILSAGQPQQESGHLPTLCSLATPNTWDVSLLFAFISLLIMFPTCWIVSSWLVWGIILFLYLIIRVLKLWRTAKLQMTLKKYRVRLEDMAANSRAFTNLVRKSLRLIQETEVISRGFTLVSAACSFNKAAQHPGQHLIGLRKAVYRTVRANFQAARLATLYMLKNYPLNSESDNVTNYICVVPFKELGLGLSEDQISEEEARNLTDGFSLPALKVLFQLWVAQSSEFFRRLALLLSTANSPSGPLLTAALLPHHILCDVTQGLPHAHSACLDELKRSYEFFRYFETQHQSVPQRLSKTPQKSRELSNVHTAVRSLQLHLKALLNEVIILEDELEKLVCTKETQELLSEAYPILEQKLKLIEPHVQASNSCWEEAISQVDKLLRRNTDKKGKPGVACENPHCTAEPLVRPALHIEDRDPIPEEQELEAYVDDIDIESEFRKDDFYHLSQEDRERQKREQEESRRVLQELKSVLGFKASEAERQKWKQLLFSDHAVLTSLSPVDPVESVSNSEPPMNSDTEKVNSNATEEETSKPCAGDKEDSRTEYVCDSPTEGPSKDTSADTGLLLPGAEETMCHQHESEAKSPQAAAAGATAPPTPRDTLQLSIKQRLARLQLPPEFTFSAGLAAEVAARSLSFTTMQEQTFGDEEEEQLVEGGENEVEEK
Assay: co-IP; whole protein extract of mouse brain (hippocampus) tissue, pre-cleared with IgG and Protein A + G agarose; antibody overnight at 4 °C, beads 3 h at 4 °C, five washes with lysis buffer; western blot; endogenous proteins

binding | Substance
no binding | protein phosphatase (PP) 1 (mouse (endogenous in mouse hippocampus)) (enzyme)
no binding | protein phosphatase (PP) 2A (mouse (endogenous in mouse hippocampus)) (enzyme)

Reference: paper PMC8511046
